Results: PMC11087398, “Evaluation of 1,10-phenanthroline-based hydroxamate derivative as dual histone deacetylases/ribonucleotide reductase inhibitor with antitumor activities” (DARU Journal of Pharmaceutical Sciences, 2024)

How the values were obtained:
Assay in all cases: MTT cell viability assay
Format in all cases: cell-based
Cal27 = conditions: Homo sapiens, CAL-27, 48 h, mean ± SD, read-out: Antiproliferative activity IC50, Cal27
Protocol: (§1) Human cancer cells (SiHa, HepG2, MCF7, Cal27) were obtained from ATCC, while foreskin fibroblast cells were generated at the Manipal School of Life Sciences. Cells were cultured in DMEM with 10% FBS, maintained in an Eppendorf CellXpert® C170 incubator at 37 °C with 5% CO2, and medium was renewed every 48–72 h.
(§2) Cancer cells (1 × 10^5 cells/mL) and fibroblast cells (5 × 10^4 cells/mL) were seeded in 96-well plates. Test compounds, dissolved in DMSO and diluted in DMEM with 10% FBS, were treated for 48 h. MTT (5 mg/mL) was added, and after 4 h, absorbance was measured at 570 and 630 nm using a VARIOSKAN™ 3001 multimode multiplate reader.

HepG2 = conditions: Homo sapiens, 48 h, mean ± SD, read-out: Antiproliferative activity IC50, HepG2
Protocol: as §1, §2

MCF7 = conditions: Homo sapiens, 48 h, mean ± SD, read-out: Antiproliferative activity IC50, MCF7
Protocol: as §1, §2

SiHa = conditions: Homo sapiens, 48 h, mean ± SD, read-out: Antiproliferative activity IC50, SiHa
Protocol: as §1, §2

[1] = test system: foreskin fibroblast cells; conditions: 48 h, normal human fibroblast cells, mean ± SD, read-out: Antiproliferative activity IC50, Fibroblast
Protocol: as §1, §2

Structure (SMILES): O=C(CCCCCCC(=O)Nc1ccccc1)NO [SAHA, suberoylanilide hydroxamic acid]
- IC50 (Cal27): 9.42 ± 4.14 µM
- IC50 (HepG2): 61.9 ± 1.47 µM
- IC50 (MCF7): > 100 µM
- IC50 (SiHa): 25.2 ± 3.69 µM
- IC50 [1]: > 100 µM
